{
  "source": "PubChem BioAssay AID1508600",
  "about": "(Functional Genomics Laboratory (NCATS/FGL), 2020)",
  "note": "In all, about 53,000 sequences went through this assay and about 3,700 (7%) were called active.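 How the source made its calls: active means gene knockdowns whose robust z-score for IL-1 alpha signal is at least 2 or at most -2, so actives lie on both sides; inactive means the rest.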 The list shows a part of the results.",
  "data": [
    {"assay": "Components of the Cytosolic LPS Sensing Pathway: Gene Identification via Genome-wide siRNA Screen;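 further: robust z of the log signal after scaling to non-targeting control siRNA wells of the plate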", "settings": "RAW264.7 macrophages, IL-1a HTRF, actives lie on both sides, screened at 100 nM (by protocol), cells primed 5 h with Pam3CSK4 first", "outline": "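Using IL-1a HTRF as read-out, the screen measured release from RAW264.7 cells after 48h siRNA knockdown (100 nM), 5 h Pam3CSK4 priming and 24 h cytosolic LipidA. Values were expressed relative to negative-control wells as robust z-scores.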", "values": [
      {"sequence": "GGACCCGUAUUUUAUGAAGTT against Sf3a2", "z-score": "inactive: 1.17"},
      {"sequence": "CCAAAUGGAGGAGAUUAGCTT against Ccdc7a", "z-score": "inactive: -0.353"},
      {"sequence": "GGCUCCAAGGGAUUUGGUUTT against Rbfox1", "z-score": "active: 2.77"},
      {"sequence": "CCUAGUGAGCACUGUACUUTT against Olfr988", "z-score": "inactive: 0.0962"},
      {"sequence": "GCAGUUAUAUGCUCAAGAUTT against Pik3r3", "z-score": "inactive: 0.0211"},
      {"sequence": "GCUUUUUGACUACGUAGCCTT against Hkdc1", "z-score": "inactive: 0.0141"},
      {"sequence": "GCCCAUUCAUAUGUAUAUCTT against Clpp", "z-score": "inactive: -1.07"},
      {"sequence": "GGAGGUUUUGAAAUAGUCATT against Kdm5a", "z-score": "inactive: 0.36"},
      {"sequence": "GGGCAGGAAAAAAAAUUCATT against Vps13b", "z-score": "inactive: 1.68"},
      {"sequence": "GGUGUGACACCUAAGAUGATT against Tspyl3", "z-score": "inactive: 0.689"},
      {"sequence": "GGUUGUGAUCUUGAAACUUTT against Tbc1d23", "z-score": "inactive: -0.562"},
      {"sequence": "GGACAUGAGUUACAUGACATT against Galnt5", "z-score": "inactive: 0.146"},
      {"sequence": "GGUGGUUUCACUCCAGAUGTT against Rrp1", "z-score": "inactive: -0.0525"},
      {"sequence": "GGCCAUGAUUUACGACGACTT against C1qtnf4", "z-score": "inactive: -1.22"},
      {"sequence": "GCAUGCAAUGUUUUUCGUATT against Hyal6", "z-score": "inactive: -1.12"},
      {"sequence": "CGUGACCAUCAGGCUAAAGTT against Ecrg4", "z-score": "active: 3.42"},
      {"sequence": "GGAAAAACCAAGGUAGAGGTT against Pick1", "z-score": "inactive: -1.38"},
      {"sequence": "GGAAAACAAGACAGUUUCGTT against Rab10os", "z-score": "inactive: -0.78"},
      {"sequence": "GCCCUUGGAAACACCAAUATT against Mustn1", "z-score": "inactive: -0.0855"},
      {"sequence": "GGGAUAGUUACAUCGAAGUTT against Acot9", "z-score": "inactive: -0.631"},
      {"sequence": "GCAGUAUGCACACCUGGAGTT against Nrde2", "z-score": "inactive: 1.87"},
      {"sequence": "GCACUGUUGUACUUGACUGTT against Fancg", "z-score": "inactive: -0.0674"},
      {"sequence": "UUCGUUCAAAUGAAGCUUCTT against Ankrd13c", "z-score": "inactive: 0.617"},
      {"sequence": "GGAAAAACUUCAGGAAGAATT against Mrpl21", "z-score": "inactive: 0.8"},
      {"sequence": "GGAAGCACUGAUGAAUUAUTT against Acer3", "z-score": "inactive: 1.49"},
      {"sequence": "CCAACUCGAAGCAAUAUGCTT against Morf4l2", "z-score": "inactive: 1.24"},
      {"sequence": "GCAAUGUUUACGAAUGAGGTT against Fam136a", "z-score": "inactive: -1.24"},
      {"sequence": "CGGCCUGUAAGAACAAACATT against Cdc37l1", "z-score": "inactive: -0.381"},
      {"sequence": "GGUUGUGCUGAAGAAUUCUTT against Cspg4", "z-score": "inactive: -0.464"},
      {"sequence": "GCAUGAGAGCCUAUGCAGCTT against Man2b2", "z-score": "inactive: -0.0341"},
      {"sequence": "GGAACUGGUAAAUUUGUAATT against Abhd17b", "z-score": "inactive: -0.26"},
      {"sequence": "GGAGAAAGGAGACCUAAAGTT against Mmab", "z-score": "inactive: 1.29"},
      {"sequence": "CCUGUUUAAACUCUGCGGATT against Vit", "z-score": "inactive: 0.678"},
      {"sequence": "GGACAAUUGAGGAACUUCUTT against Tkt", "z-score": "inactive: 0.944"},
      {"sequence": "GCUAGGUAUACAGCCAAAGTT against Spryd4", "z-score": "inactive: -0.699"},
      {"sequence": "GGAGACAGAAUCAUAGUUATT against Sh3yl1", "z-score": "inactive: 0.0505"},
      {"sequence": "GGAUAUCUUCAUAUUGGUGTT against Ces1f", "z-score": "active: 4"},
      {"sequence": "GGAAAAUAUGUGUAGGGAATT against Nkx2-2", "z-score": "inactive: -0.882"},
      {"sequence": "GGUGAACAGAAUAUAUGGATT against Olfr629", "z-score": "inactive: -1.21"},
      {"sequence": "CCUUCACACUUAAUAGAGGTT against Ifitm3", "z-score": "inactive: 0.892"},
      {"sequence": "GGACAAACAGCUUCAAGAUTT against Psmd2", "z-score": "active: -2.26"},
      {"sequence": "GGUUUUGGACACACUAUUUTT against Tmem184c", "z-score": "inactive: 0.103"},
      {"sequence": "CCAGUGACAUUCAAUACCUTT against Lrif1", "z-score": "inactive: -1.52"},
      {"sequence": "GGACCAUACUGGAUAAGGATT against Ccl12", "z-score": "inactive: -1.47"},
      {"sequence": "CCACAUCUCAUGUGAAACCTT against Olfr517", "z-score": "inactive: -0.927"},
      {"sequence": "GCCAUCACUGAAUUAAGAUTT against Pcdhb11", "z-score": "inactive: -0.018"},
      {"sequence": "CCUCUAGUAAAGAAAUAGATT against Srsf11", "z-score": "inactive: 0.0296"},
      {"sequence": "CCUAUUGAUUGUAUAUCCATT against Emc2", "z-score": "inactive: -0.429"},
      {"sequence": "GGACAAUGAAGGAAUUGAUTT against Mdm4", "z-score": "inactive: -0.579"},
      {"sequence": "GCCCGCACAAUCGUACUUUTT against Ccl28", "z-score": "inactive: -1.2"},
      {"sequence": "CCUCGUAUUUAUACUCAGUTT against Gpr18", "z-score": "inactive: 0.3"},
      {"sequence": "GGAAUGUUGUUCUCAAGAUTT against Ddhd1", "z-score": "inactive: 0.216"},
      {"sequence": "GGUACUAAACUUCUUCAACTT against Rsu1", "z-score": "inactive: 0.159"},
      {"sequence": "CCACCCAACCAGGUAACUATT against Fam184b", "z-score": "inactive: -1.1"},
      {"sequence": "GGAAGAAACCUCUUCGAGATT against Hmg20a", "z-score": "inactive: 0.608"},
      {"sequence": "GGUGAACAGAGCUCAUAAUTT against Specc1", "z-score": "inactive: 0.172"},
      {"sequence": "GGAAACAAGAUUACAUCAATT against Adamts2", "z-score": "active: 2.04"},
      {"sequence": "GGGUCUACAAUCACCAGACTT against Wnt10a", "z-score": "inactive: 1.15"},
      {"sequence": "CCAAACUAUAGUGAACUUATT against Irak4", "z-score": "inactive: -1.27"},
      {"sequence": "GGCUAAAUUUGAAGAUGAUTT against Ecrg4", "z-score": "inactive: -1.22"},
      {"sequence": "GUGAAAUCUAUGGAGAAUGTT against Jkamp", "z-score": "inactive: 1.34"},
      {"sequence": "GCAGGUCACUUUCUAGAGATT against Srsf3", "z-score": "active: -2.25"},
      {"sequence": "CCAGAGGCCAUAGUUAUGUTT against Wnk1", "z-score": "inactive: 1.29"},
      {"sequence": "CCGAGUUUGCCUUCUAUCCTT against Hoxb13", "z-score": "inactive: 0.913"},
      {"sequence": "GGCGAAAGAUGAACCACCATT against Aurkaip1", "z-score": "inactive: -1.65"},
      {"sequence": "GGCUUUGAUAUACCUUGAATT against Pvt1", "z-score": "inactive: -1.98"},
      {"sequence": "GGCAAAGCCAAAAGAAAUATT against Mindy2", "z-score": "inactive: 0.852"},
      {"sequence": "GGGCAGCACUGUGGUUAAUTT against Sh3rf1", "z-score": "inactive: -1.92"}
    ]}
  ]
}
